# Literature values as cited in paper PMC411066 (BMC Medicine, 2004).
# Key:
# P-gp [1] = conditions: cited from earlier work
# P-gp [2] = conditions: cited from earlier work; remark: listed apart in the source
smiles,measurement,setting,value
CC(C)c1c(C(=O)Nc2ccccc2)c(-c2ccccc2)c(-c2ccc(F)cc2)n1CC[C@@H](O)C[C@@H](O)CC(=O)O [atorvastatin],In vitro P-gp inhibition,P-gp [1],in vitro P-gp inhibitor
same,In vivo effects on P-gp,P-gp [2],demonstrates in vivo effects on P-gp
